From article PMC11069146
Results are given in words; binding and its absence hold for the method and conditions named. In cells and extracts the contact can be indirect. Some results given as binding are weak or reduced against the parent protein; the word gives no strength.

Sequences of proteins named here, by UniProt entry; tags and fusion partners are left off.
UniProt Q93009: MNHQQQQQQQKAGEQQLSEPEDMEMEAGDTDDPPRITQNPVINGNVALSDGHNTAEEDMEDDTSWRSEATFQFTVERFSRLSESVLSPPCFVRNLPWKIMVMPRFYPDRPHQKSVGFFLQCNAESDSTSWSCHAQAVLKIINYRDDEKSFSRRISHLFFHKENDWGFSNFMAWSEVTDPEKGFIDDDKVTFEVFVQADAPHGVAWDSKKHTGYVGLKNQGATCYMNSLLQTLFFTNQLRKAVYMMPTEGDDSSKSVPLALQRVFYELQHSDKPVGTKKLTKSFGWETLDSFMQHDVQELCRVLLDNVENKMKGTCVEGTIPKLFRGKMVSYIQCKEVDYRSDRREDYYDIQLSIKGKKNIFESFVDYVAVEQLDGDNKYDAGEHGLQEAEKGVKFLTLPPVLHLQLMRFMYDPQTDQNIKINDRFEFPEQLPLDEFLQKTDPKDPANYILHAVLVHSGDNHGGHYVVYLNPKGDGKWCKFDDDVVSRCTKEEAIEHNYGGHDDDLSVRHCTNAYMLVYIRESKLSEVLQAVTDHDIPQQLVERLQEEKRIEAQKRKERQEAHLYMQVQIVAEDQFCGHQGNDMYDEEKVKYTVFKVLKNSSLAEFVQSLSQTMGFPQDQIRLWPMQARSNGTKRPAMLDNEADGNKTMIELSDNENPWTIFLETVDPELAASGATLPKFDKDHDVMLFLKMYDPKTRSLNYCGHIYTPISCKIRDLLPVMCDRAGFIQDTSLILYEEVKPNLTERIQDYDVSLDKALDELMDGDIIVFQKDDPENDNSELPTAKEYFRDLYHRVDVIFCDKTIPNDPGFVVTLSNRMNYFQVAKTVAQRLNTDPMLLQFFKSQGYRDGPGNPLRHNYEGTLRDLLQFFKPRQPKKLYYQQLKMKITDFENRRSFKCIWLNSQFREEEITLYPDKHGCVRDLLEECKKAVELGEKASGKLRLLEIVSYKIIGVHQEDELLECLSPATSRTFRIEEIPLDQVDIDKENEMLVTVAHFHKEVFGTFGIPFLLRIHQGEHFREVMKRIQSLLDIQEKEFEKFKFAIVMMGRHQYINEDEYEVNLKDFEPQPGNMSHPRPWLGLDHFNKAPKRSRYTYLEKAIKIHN
UniProt P19474: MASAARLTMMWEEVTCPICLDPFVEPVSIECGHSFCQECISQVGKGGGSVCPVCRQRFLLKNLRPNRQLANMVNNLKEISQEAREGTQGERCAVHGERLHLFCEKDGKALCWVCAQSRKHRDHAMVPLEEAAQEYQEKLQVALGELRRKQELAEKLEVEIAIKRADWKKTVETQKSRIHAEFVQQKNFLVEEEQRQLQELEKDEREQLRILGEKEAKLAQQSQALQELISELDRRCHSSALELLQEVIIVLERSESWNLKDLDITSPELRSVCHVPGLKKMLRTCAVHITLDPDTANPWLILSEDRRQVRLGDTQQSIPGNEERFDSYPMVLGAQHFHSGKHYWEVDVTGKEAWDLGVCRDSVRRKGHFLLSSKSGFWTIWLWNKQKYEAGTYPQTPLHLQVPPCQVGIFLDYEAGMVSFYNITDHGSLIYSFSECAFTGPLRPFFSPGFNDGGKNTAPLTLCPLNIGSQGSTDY

Columns and labels:
[1] = target: Ubiquitin-specific protease 7 (human (endogenous in RD and A204)) (UniProt Q93009); assay: co-IP; non-denaturing lysis buffer with protease inhibitors; lysate on protein A/G agarose beads pre-coupled with antibody, 4 °C for 4 h; western blot; RD and A204 cells (Fig. 4A), RD cells (Fig. 6C, D, reciprocal)
[2] = target: T1, SNAI2 (human (endogenous in RD and A204)) (UniProt O43623); assay: as above
T1 sequence: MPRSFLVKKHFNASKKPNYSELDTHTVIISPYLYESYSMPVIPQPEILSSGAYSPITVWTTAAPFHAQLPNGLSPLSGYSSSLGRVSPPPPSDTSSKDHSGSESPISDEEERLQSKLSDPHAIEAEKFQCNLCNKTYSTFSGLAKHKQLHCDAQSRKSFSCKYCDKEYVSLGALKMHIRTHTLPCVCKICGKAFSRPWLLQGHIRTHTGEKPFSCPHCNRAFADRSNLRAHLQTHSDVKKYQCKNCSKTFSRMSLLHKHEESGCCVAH

Substance	binding [1]	binding [2]
E3 ubiquitin ligase TRIM21 (from UniProt P19474 1-475) (enzyme)	binds	binds
Ubiquitin-specific protease 7 (from UniProt Q93009 1-1102) (enzyme)	–	binds
